# Measured values taken from article PMC5428777, “Molecular Characteristics and Serodiagnostic Potential of Dihydrofolate Reductase from Echinococcus granulosus” (Scientific Reports, 2017).
# Tested on: E. granulosus-specific IgG antibodies
# Assay: Indirect ELISA (iELISA) for serodiagnosis of cystic echinococcosis in sheep
# Settings: for Analytical specificity: cross-reaction with C. tenuicollis-positive goat (n=7) and C. cerebralis-positive sheep (n=7) sera
substance,measurement,setting,value
Cystatin,Diagnostic sensitivity (DSN),"24 positive sheep sera, compared with necropsy",79.17% (19/24)
same,Diagnostic specificity (DSP),"48 negative sheep sera, compared with necropsy",77.08% (37/48)
same,Diagnostic accuracy,"72 sheep sera, compared with necropsy",77.78% (56/72)
same,Analytical specificity,,50% (7/14)
same,Analytical specificity,listed as rEg-cystatin,50%
